Common to all, as to test: co-IP; HEK293T co-transfected with untagged FBLN1C or FBLN1D and EGFR-GFP; 500 ug lysate (1% NP40, 120 mM NaCl, HEPES 7.8); IP with anti-FBLN1 or anti-EGFR antibody on Protein A sepharose at 4 C, western blot; also done on serum starved cells with and without EGF (100 ng/ml, 5 min), association unaffected
A general note: Immunoblotting shows a protein as a band on a membrane.

For experiment [1], the target named is T1, Fibulin-1D (untagged, overexpressed) (human) (UniProt P23142).
T1 sequence: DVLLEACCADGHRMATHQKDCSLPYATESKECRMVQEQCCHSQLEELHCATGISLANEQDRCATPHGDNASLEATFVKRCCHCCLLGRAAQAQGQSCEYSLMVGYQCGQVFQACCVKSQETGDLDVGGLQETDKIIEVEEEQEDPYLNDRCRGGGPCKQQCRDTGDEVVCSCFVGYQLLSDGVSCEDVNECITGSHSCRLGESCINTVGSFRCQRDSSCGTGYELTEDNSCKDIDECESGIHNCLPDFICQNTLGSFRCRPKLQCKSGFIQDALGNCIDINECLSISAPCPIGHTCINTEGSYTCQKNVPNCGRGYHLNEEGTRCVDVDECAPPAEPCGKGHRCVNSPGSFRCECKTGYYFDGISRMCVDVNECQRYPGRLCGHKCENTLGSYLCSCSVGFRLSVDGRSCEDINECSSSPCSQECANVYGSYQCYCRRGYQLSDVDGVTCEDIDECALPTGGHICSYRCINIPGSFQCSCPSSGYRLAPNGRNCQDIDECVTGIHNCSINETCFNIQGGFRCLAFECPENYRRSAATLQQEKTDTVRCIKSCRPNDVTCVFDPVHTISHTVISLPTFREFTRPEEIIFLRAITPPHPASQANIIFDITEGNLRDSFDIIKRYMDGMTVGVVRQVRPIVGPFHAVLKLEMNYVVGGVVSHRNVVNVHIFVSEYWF

The target of experiment [2] is T2, Fibulin-1C (untagged, overexpressed) (human) (UniProt P23142).
T2 sequence: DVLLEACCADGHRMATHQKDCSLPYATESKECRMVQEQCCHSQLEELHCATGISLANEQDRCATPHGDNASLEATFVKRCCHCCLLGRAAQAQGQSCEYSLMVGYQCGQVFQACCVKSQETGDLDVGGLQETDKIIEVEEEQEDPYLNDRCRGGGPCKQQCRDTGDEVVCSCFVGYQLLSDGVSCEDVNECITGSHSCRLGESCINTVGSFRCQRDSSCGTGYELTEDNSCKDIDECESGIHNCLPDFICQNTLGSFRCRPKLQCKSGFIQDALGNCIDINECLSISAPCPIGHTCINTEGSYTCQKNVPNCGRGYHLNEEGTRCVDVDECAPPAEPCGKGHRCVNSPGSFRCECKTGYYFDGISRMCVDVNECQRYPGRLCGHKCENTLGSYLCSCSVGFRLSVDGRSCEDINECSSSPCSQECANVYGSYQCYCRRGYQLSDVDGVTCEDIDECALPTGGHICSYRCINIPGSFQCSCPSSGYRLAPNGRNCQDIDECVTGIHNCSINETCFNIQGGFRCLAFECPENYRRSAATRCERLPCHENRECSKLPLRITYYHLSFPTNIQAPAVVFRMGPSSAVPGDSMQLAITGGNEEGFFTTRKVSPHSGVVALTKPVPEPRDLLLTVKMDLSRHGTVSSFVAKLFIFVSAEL

Experiment [3] has as its target EGFR-GFP (GFP tagged Epidermal Growth Factor Receptor, overexpressed) (UniProt P00533).

Results are given in words; binding and its absence hold for the method and conditions named. Binding seen in cells or lysates may run through a third protein. Some binding calls cover weakened binding; strength is not graded here. Sequences can lack the tags named with a protein.

Take “EGFR-GFP (GFP tagged Epidermal Growth Factor Receptor, overexpressed) (from UniProt P00533 25-1210)”: the binding result in experiment [1] and in experiment [2] was “binds” in each case.

B1: Fibulin-1C (untagged, overexpressed) (protein, UniProt P23142-4 30-683)
chain: DVLLEACCADGHRMATHQKDCSLPYATESKECRMVQEQCCHSQLEELHCATGISLANEQDRCATPHGDNASLEATFVKRCCHCCLLGRAAQAQGQSCEYSLMVGYQCGQVFQACCVKSQETGDLDVGGLQETDKIIEVEEEQEDPYLNDRCRGGGPCKQQCRDTGDEVVCSCFVGYQLLSDGVSCEDVNECITGSHSCRLGESCINTVGSFRCQRDSSCGTGYELTEDNSCKDIDECESGIHNCLPDFICQNTLGSFRCRPKLQCKSGFIQDALGNCIDINECLSISAPCPIGHTCINTEGSYTCQKNVPNCGRGYHLNEEGTRCVDVDECAPPAEPCGKGHRCVNSPGSFRCECKTGYYFDGISRMCVDVNECQRYPGRLCGHKCENTLGSYLCSCSVGFRLSVDGRSCEDINECSSSPCSQECANVYGSYQCYCRRGYQLSDVDGVTCEDIDECALPTGGHICSYRCINIPGSFQCSCPSSGYRLAPNGRNCQDIDECVTGIHNCSINETCFNIQGGFRCLAFECPENYRRSAATRCERLPCHENRECSKLPLRITYYHLSFPTNIQAPAVVFRMGPSSAVPGDSMQLAITGGNEEGFFTTRKVSPHSGVVALTKPVPEPRDLLLTVKMDLSRHGTVSSFVAKLFIFVSAEL
B1: the binding result in experiment [3] is recorded as “binds”.

B2: Fibulin-1D (untagged, overexpressed) (protein, UniProt P23142-1 30-703)
chain: DVLLEACCADGHRMATHQKDCSLPYATESKECRMVQEQCCHSQLEELHCATGISLANEQDRCATPHGDNASLEATFVKRCCHCCLLGRAAQAQGQSCEYSLMVGYQCGQVFQACCVKSQETGDLDVGGLQETDKIIEVEEEQEDPYLNDRCRGGGPCKQQCRDTGDEVVCSCFVGYQLLSDGVSCEDVNECITGSHSCRLGESCINTVGSFRCQRDSSCGTGYELTEDNSCKDIDECESGIHNCLPDFICQNTLGSFRCRPKLQCKSGFIQDALGNCIDINECLSISAPCPIGHTCINTEGSYTCQKNVPNCGRGYHLNEEGTRCVDVDECAPPAEPCGKGHRCVNSPGSFRCECKTGYYFDGISRMCVDVNECQRYPGRLCGHKCENTLGSYLCSCSVGFRLSVDGRSCEDINECSSSPCSQECANVYGSYQCYCRRGYQLSDVDGVTCEDIDECALPTGGHICSYRCINIPGSFQCSCPSSGYRLAPNGRNCQDIDECVTGIHNCSINETCFNIQGGFRCLAFECPENYRRSAATLQQEKTDTVRCIKSCRPNDVTCVFDPVHTISHTVISLPTFREFTRPEEIIFLRAITPPHPASQANIIFDITEGNLRDSFDIIKRYMDGMTVGVVRQVRPIVGPFHAVLKLEMNYVVGGVVSHRNVVNVHIFVSEYWF
Regarding B2, the binding entry in experiment [3] is “binds”.

(Values after PMC7348071.)
